In PMC11618363:
Results are given in words; binding and its absence hold for the method and conditions named. Binding seen in cells or lysates may run through a third protein. Sequences can lack the tags named with a protein.

Target: T1, Pro-casp1-His (murine) (UniProt P29452)
T1 sequence: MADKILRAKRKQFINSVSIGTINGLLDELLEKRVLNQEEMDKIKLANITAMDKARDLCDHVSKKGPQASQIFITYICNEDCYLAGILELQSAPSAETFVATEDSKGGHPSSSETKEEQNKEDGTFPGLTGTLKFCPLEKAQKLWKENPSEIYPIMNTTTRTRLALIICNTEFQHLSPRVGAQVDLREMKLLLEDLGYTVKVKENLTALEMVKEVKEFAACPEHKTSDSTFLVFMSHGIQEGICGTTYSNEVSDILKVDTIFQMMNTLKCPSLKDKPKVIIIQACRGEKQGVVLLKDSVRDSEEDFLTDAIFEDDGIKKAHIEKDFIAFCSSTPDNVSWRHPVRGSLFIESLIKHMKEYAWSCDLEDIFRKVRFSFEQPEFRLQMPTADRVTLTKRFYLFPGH
Test: co-IP; HEK293T transiently transfected for 48 h; lysate in 50 mM HEPES pH 7.0, 250 mM NaCl, 1 mM EDTA, 0.2% Nonidet P-40; overnight at 4 °C with anti-Flag M2 affinity gel or anti-c-Myc agarose; immunoblot; in some experiments varying amounts of cGSN or MAVS plasmid, or BAPTA-AM (5, 20, 40 μM) during transfection

**Q.** Myc-GSN (murine) was tested. Which binding did it give?
**A.** no binding
